Assay results published in PubChem BioAssay AID1724 (National Center for Advancing Translational Sciences (NCATS), 2009).
The shares of active, inactive and inconclusive entries below differ from those in the screen. Potencies beside an inconclusive call are fits to weak or partial responses and may not hold up. Active and inactive are the calls of the source. Calls follow the shape of the dose curve; as a rule, active = well fitted inhibition curve with a large enough effect; inconclusive = small, poorly fitted or top-dose-only effect, or effect the other way; inactive = no such curve, though single readings can be large or run the other way.

Test: Confirmation Concentration-Response Assay for Inhibitors of the ERK Signaling Pathway using a Homogeneous Screening Assay
Conditions: HEK293 cells, hormone-stimulated phospho-ERK AlphaScreen; activity change, negative = inhibition: at 40.9 µM (top of the series) unless noted
In short: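 Phospho-ERK AlphaScreen in HEK293 cells stably expressing V1b receptor; 30 min compound exposure at 37C before 5 min 25 nM vasopressin stimulation. Data scaled between DMSO basal and vasopressin activation; AC50 via standard Hill equation.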
In the case of Cc1nc2ccccc2nc(=O)c1NNc1ccccc1, the Potency is reported as inconclusive: 6.31 µM [inhibitor, partial curve, poor fit]. With Cc1nc2ccccc2c2oc(C(=O)N3CCc4ccccc4C3)cc12 the Potency was active: 25.1 µM. For C/C(=N\Nc1nnc(-c2ccccc2)c(-c2ccccc2)n1)c1cccc([N+](=O)[O-])c1, the Potency was “inactive”. For CCCCC[C@H](O)C=C[C@H]1[C@H](O)CC(=O)[C@H]1CCCCCCC(=O)O, the Potency was inconclusive: 0.316 µM [inhibitor, full curve, poor fit]. With CCCC(=O)N1CCN(c2ccc(NC(=O)c3cc4ccccc4o3)cc2)CC1 the Potency was inconclusive: 39.8 µM [inhibitor, partial curve, poor fit]. For CCCNc1ncnc2sc(C)c(C)c12, the Potency was “inactive”. For N#CC(C#N)=C1C=CC=CN1/C(=C\c1ccco1)C(=O)c1ccc(Br)cc1, the Potency was inconclusive: 11.2 µM [inhibitor, full curve, poor fit]. With COc1ccc(N=C2C(=Nc3ccc(OC)cc3)N(c3ccc(N(C)C)cc3)C(=S)N2c2ccc(OC)cc2)cc1 the Potency was active: 5.62 µM. With COc1ccc(N=C2C(=Nc3ccc(OC)cc3)N(c3ccc(OC)cc3)C(=S)N2c2ccccc2)cc1 the Potency was inconclusive: 8.91 µM [inhibitor, full curve, poor fit]. With Cc1ccc(Nc2ncnc3sc(C)c(C)c23)cc1C the Potency was inconclusive: 0.251 µM [inhibitor, full curve, poor fit]. With CCCN1C(=O)/C(=C2/C=Cc3ccccc3N2CC)SC1=S the Potency was active: 11.2 µM. With Cn1c(=O)cc(Nc2ccccc2)c2c(=O)n(-c3ccccc3)c(=O)n(-c3ccccc3)c21 the Potency was active: 8.91 µM. With O=C1c2ccc(O)c(O)c2C(=O)c2c(O)ccc(O)c21 the Potency was “inactive”. With CCOc1ccc(NC(=O)c2ccc(F)c(S(=O)(=O)N3CCN(c4ccccn4)CC3)c2)cc1 the Potency was inconclusive: 7.94 µM [inhibitor, partial curve, poor fit]. For COc1ccc(CNc2ncnc3ccc(-c4cccc(NS(C)(=O)=O)c4)cc23)c(OC)c1, the Potency was active: 15.8 µM. In the case of O=C(Nc1ccccc1O)c1cc(S(=O)(=O)N2CCOCC2)c(Cl)cc1Cl, the Potency is reported as inconclusive: 0.398 µM [inhibitor, single point]. In the case of CS(=O)(=O)Nc1cccc(-c2ccc3ncnc(Nc4ccc(F)cc4)c3c2)c1, the Potency is reported as inconclusive: 0.282 µM [inhibitor, full curve, poor fit]. In the case of c1ccc(Nc2ncnc3ccc(-c4cccnc4)cc23)cc1, the Potency is reported as inconclusive: 3.55 µM [inhibitor, full curve, poor fit]. In the case of COc1ccc2[nH]cc(CCNc3ncnc4ccc(-c5ccc(C(=O)N(C)C)cc5)cc34)c2c1, the Potency is reported as active: 31.6 µM. For COc1ccc(-c2nc3cnc(N(C)C)nc3n(CCc3ccccc3)c2=O)cc1, the activity change, negative = inhibition was inconclusive: 33.7% [activator]. For CC(=O)N1CCC(=NNc2nc3ccccc3s2)CC1, the Potency was “inactive”.
